Laboratory results from PubChem BioAssay AID248 (DTP/NCI, 2004).
The list does not hold the whole screen: it gathers tests that were run many times, whatever their T/C, doses with no T/C, and many T/C values between a quarter and a half above the control. Further doses and runs are listed elsewhere. T/C: endpoint of the treated group in % of that of the vehicle group. Some entries give survivors of the animals treated and no T/C: the source holds a T/C of zero for them, seemingly a mark for toxic or unscored doses. Some survivor counts are full or nearly so, which does not show that the dose was tolerated: survival well below the control is almost never listed, so the zero probably covers shortened survival too. Counts of survivors are from the toxicity check (mostly the fifth day) where no day follows; animals may have died later. Schedules are NCI's codes, read here as Q, the interval in days (D) or hours (H), X, the number of doses. Some schedule codes hold Z or #, which are not explained here. For survival time, this PubChem deposit counts one and a half times the control or more as active, and values a quarter to a half above the control carry no call in these data; other NCI protocols may use other cut-offs. Some T/C values carry the count of animals alive at the toxicity check (mostly the fifth day); without a count, all were alive then.

System: L1210 leukemia ip in BDF1 mice, survival T/C
Assay: NCI In Vivo Anticancer Drug Screen. Data for tumor model L1210 Leukemia (intraperitoneal) in B6D2F1 (BDF1) mice
Details: T/C endpoint: mean survival time, higher T/C = longer survival
[1] = dose: 400.0 mg/kg/injection, schedule: Q04DX003 (ip), vehicle: saline with Tween-80
[2] = dose: 400.0 mg/kg/injection, schedule: Q04DX003 (ip), vehicle: saline
[3] = dose: 400.0 mg/kg/injection, schedule: Q04DX002 (ip), vehicle: saline
[4] = dose: 400.0 mg/kg/injection, schedule: Q04DX002 (ip), vehicle: Klucel (hydroxypropylcellulose) (HPC)
[5] = dose: 100.0 mg/kg/injection, schedule: Q04DX003 (ip), vehicle: saline
[6] = dose: 200.0 mg/kg/injection, schedule: Q04DX003 (ip), vehicle: saline
[7] = dose: 200.0 mg/kg/injection, schedule: Q01DX001 (ip), vehicle: saline
[8] = dose: 400.0 mg/kg/injection, schedule: Q04DX002 (ip), vehicle: saline with Tween-80
[9] = dose: 200.0 mg/kg/injection, schedule: Q04DX002 (ip), vehicle: saline with Tween-80
[10] = dose: 400.0 mg/kg/injection, schedule: Q01DX009 (ip), vehicle: Klucel (hydroxypropylcellulose) (HPC)

C=C(Cl)CSCCS
survivor count [1]: 0 of 6

Cn1ccc(CCl)n1
survivor count [2]: 4 of 6

O=C1NCCc2cc3c(cc21)OCO3
survivor count (dose: 200.0 mg/kg/injection, schedule: Q04DX002 (ip), vehicle: saline): 3 of 3 | survivor count [3]: 2 of 3

C/C=C/C(OCC)OCC
survivor count (dose: 200.0 mg/kg/injection, schedule: Q01DX009 (ip), vehicle: water): 0 of 6 | survivor count (dose: 400.0 mg/kg/injection, schedule: Q01DX009 (ip), vehicle: water): 0 of 6

CC1Cc2c(Cl)cc(C(=O)NC(Cc3ccccc3)C(=O)O)c(O)c2C(=O)O1 (stereo not given)
survivor count (dose: 200.0 mg/kg/injection, schedule: Q01DX001 (ip), vehicle: carboxymethylcellulose (CMC)): 1 of 6

O=S(=O)(CCCl)c1ccc2ccccc2c1
survivor count (dose: 200.0 mg/kg/injection, schedule: Q04DX002 (ip), vehicle: Klucel (hydroxypropylcellulose) (HPC)): 1 of 3 | survivor count [4]: 0 of 3

CC(=O)Nc1cc(C(=O)Nc2cccc(C3=NCCN3)c2)ccc1C(=O)Nc1cccc(C2=NCCN2)c1
survivor count (dose: 2.7 mg/kg/injection, schedule: Q01DX Z (ip), vehicle: methylcellulose (MC)): 0 of 6 | survivor count (dose: 4.0 mg/kg/injection, schedule: Q01DX Z (ip), vehicle: methylcellulose (MC)): 0 of 6 | survivor count (dose: 6.0 mg/kg/injection, schedule: Q01DX Z (ip), vehicle: methylcellulose (MC)): 0 of 6 | survivor count (dose: 9.0 mg/kg/injection, schedule: Q01DX Z (ip), vehicle: methylcellulose (MC)): 0 of 6

CCCCCCCCCCCCCCCC[N+](C)(C)CCCCCCCCCCCCCCCC
survivor count (dose: 25.0 mg/kg/injection, schedule: Q04DX003 (ip), vehicle: saline with Tween-80): 1 of 3 | survivor count (dose: 50.0 mg/kg/injection, schedule: Q04DX003 (ip), vehicle: saline with Tween-80): 0 of 3 | survivor count (dose: 50.0 mg/kg/injection, schedule: Q04DX003 (ip), vehicle: saline): 3 of 3 | survivor count [5]: 1 of 3 | survivor count [6]: 0 of 3

CCCCC(/C=N\NC(=O)c1ccc[n+](C)c1)=C/c1ccccc1
survivor count (dose: 400.0 mg/kg/injection, schedule: Q01DX001 (ip), vehicle: saline with Tween-80): 0 of 6

N=C(N)C(N)=NCC(Br)CBr (stereo not given)
survivor count [3]: 1 of 3

CN1CCCC2C(c3ccccc3)C(C3=NCCCC3)C(c3ccccc3)CC21 (stereo not given)
survivor count [7]: 0 of 4 | survivor count (dose: 400.0 mg/kg/injection, schedule: Q01DX001 (ip), vehicle: saline): 0 of 4

N=C(N)SCC(=O)c1ccc([N+](=O)[O-])cc1
survivor count [8]: 2 of 3

Cc1c([N+](=O)[O-])cc(C(C)(C)C)c(OC(=O)CCl)c1[N+](=O)[O-]
survivor count (dose: 75.0 mg/kg/injection, schedule: Q01DX009 (ip), vehicle: Klucel (hydroxypropylcellulose) (HPC)): 0 of 6 | survivor count (dose: 150.0 mg/kg/injection, schedule: Q01DX009 (ip), vehicle: Klucel (hydroxypropylcellulose) (HPC)): 0 of 6 | survivor count (dose: 300.0 mg/kg/injection, schedule: Q01DX009 (ip), vehicle: Klucel (hydroxypropylcellulose) (HPC)): 0 of 6

c1ccc(Cn2ccc3ccncc32)cc1
survivor count (dose: 150.0 mg/kg/injection, schedule: Q01DX001 (ip), vehicle: other): 3 of 6

c1ccc2c(CCNC3=NCCO3)c[nH]c2c1
survivor count [9]: 0 of 3 | survivor count [8]: 0 of 3

COC(=O)C1C2CC(O)C(C2)C1C(=O)OC (stereo not given)
survivor count (dose: 100.0 mg/kg/injection, schedule: Q04DX003 (ip), vehicle: saline with Tween-80): 6 of 6 | survivor count (dose: 200.0 mg/kg/injection, schedule: Q04DX003 (ip), vehicle: saline with Tween-80): 0 of 6 | survivor count [1]: 0 of 6

CCc1cc2c(cc1C(=O)/C=C\c1cccc3ccccc13)C(C)(C)CCC2(C)C
survivor count (dose: 50.0 mg/kg/injection, schedule: Q04DX002 (ip), vehicle: saline with Tween-80): 3 of 3 | survivor count [9]: 3 of 3 | survivor count [8]: 3 of 3

O=C(O)C1CCC2CCCCC2[N-]1.O=C(O)C1CCC2CCCCC2[N-]1.[Zn+2] (stereo not given)
survivor count (dose: 100.0 mg/kg/injection, schedule: Q01DX009 (ip), vehicle: Klucel (hydroxypropylcellulose) (HPC)): 6 of 6 | survivor count (dose: 200.0 mg/kg/injection, schedule: Q01DX009 (ip), vehicle: Klucel (hydroxypropylcellulose) (HPC)): 6 of 6 | survivor count [10]: 6 of 6

O=C(O)/C=C\c1ccccc1
survivor count (dose: 400.0 mg/kg/injection, schedule: Q01DX009 (ip), vehicle: other): 6 of 6

COC(=O)C1C(O)C(C)C(O)C(C)C=C(C)C2=C3C(=C(C)C(=O)c4c(O)c(c(C)c(OC(C)=O)c43)NC(=O)C(C)=C/C=C\C(C)C(O)C(C)C1O)OCO2 (stereo not given)
survivor count [4]: 1 of 3

N#CCCC#N (tested in a mixture with another compound)
survivor count [1]: 2 of 6

O=C(c1ccccc1)C(C(=O)c1ccccc1)C(c1ccccc1)C(C(=O)c1ccccc1)C(c1ccccc1)c1ccccc1 (stereo not given)
survivor count [7]: 6 of 6

COc1nc(Cl)nc(Cl)n1
survivor count (dose: 12.0 mg/kg/injection, schedule: Q01DX Z (ip), vehicle: methylcellulose (MC)): 1 of 6 | survivor count (dose: 25.0 mg/kg/injection, schedule: Q01DX Z (ip), vehicle: methylcellulose (MC)): 0 of 6 | survivor count (dose: 50.0 mg/kg/injection, schedule: Q01DX Z (ip), vehicle: methylcellulose (MC)): 0 of 6 | survivor count (dose: 100.0 mg/kg/injection, schedule: Q01DX Z (ip), vehicle: methylcellulose (MC)): 0 of 6 | survivor count (dose: 200.0 mg/kg/injection, schedule: Q01DX Z (ip), vehicle: methylcellulose (MC)): 0 of 6

O=C(OCC1OCOC(COC(=O)c2ccccc2)C(OC(=O)c2ccccc2)C1OC(=O)c1ccccc1)c1ccccc1 (stereo not given)
survivor count (dose: 100.0 mg/kg/injection, schedule: Q04DX002 (ip), vehicle: saline with Tween-80): 3 of 3 | survivor count [9]: 3 of 3

C[n+]1ccccc1NC(=O)c1ccc(C(=O)Nc2cccc[n+]2C)cc1
survivor count (dose: 15.0 mg/kg/injection, schedule: Q01DX Z (ip), vehicle: saline): 6 of 6 | survivor count (dose: 60.0 mg/kg/injection, schedule: Q01DX Z (ip), vehicle: saline): 6 of 6

COC1=C(C)C(=O)c2c(c(COC(N)=O)c3n2CC2C3N2C)C1=O (stereo not given)
T/C (dose: 1.9 mg/kg/injection, schedule: Q01DX001 (ip), vehicle: saline): 130 % of control | T/C (dose: 2.9 mg/kg/injection, schedule: Q01DX001 (ip), vehicle: other): 125 % of control | T/C (dose: 2.9 mg/kg/injection, schedule: Q01DX001 (ip), vehicle: saline): 128 % of control | survivor count (dose: 3.0 mg/kg/injection, schedule: Q01DX009 (ip), vehicle: carboxymethylcellulose (CMC)): 3 of 6 | T/C (dose: 4.5 mg/kg/injection, schedule: Q01DX001 (ip), vehicle: other): 132 % of control | T/C (dose: 4.5 mg/kg/injection, schedule: Q01DX001 (ip), vehicle: saline): 135 % of control | survivor count (dose: 5.0 mg/kg/injection, schedule: Q01DX009 (ip), vehicle: carboxymethylcellulose (CMC)): 2 of 6 | T/C (dose: 6.7 mg/kg/injection, schedule: Q01DX001 (ip), vehicle: other): 132 % of control | T/C (dose: 6.7 mg/kg/injection, schedule: Q01DX001 (ip), vehicle: saline): 125 % of control | T/C (dose: 10.0 mg/kg/injection, schedule: Q01DX001 (ip), vehicle: other): 144 % of control | T/C (dose: 15.0 mg/kg/injection, schedule: Q01DX001 (ip), vehicle: other): 126 % of control [5 of 6 alive] | survivor count (dose: 23.0 mg/kg/injection, schedule: Q01DX001 (ip), vehicle: carboxymethylcellulose (CMC)): 0 of 6 | survivor count (dose: 35.0 mg/kg/injection, schedule: Q01DX001 (ip), vehicle: carboxymethylcellulose (CMC)): 1 of 6

CCC(CC)N=C(N)N
survivor count [6]: 6 of 6 | survivor count [2]: 1 of 6

COc1ccc([N+](=O)[O-])c2c(C)cc(=O)[nH]c12
survivor count [10]: 2 of 6

CCCCNC(C)(C)C(SSSC(c1ccc(Cl)cc1)C(C)(C)NCCCC)c1ccc(Cl)cc1 (stereo not given)
survivor count [5]: 2 of 6 | survivor count [6]: 0 of 6 | survivor count [2]: 0 of 6
